Results on 1 substance are retold here after PMC12516561 (2025).

Chains of the proteins cited; added tags and fusions are not shown.
UniProt P51812: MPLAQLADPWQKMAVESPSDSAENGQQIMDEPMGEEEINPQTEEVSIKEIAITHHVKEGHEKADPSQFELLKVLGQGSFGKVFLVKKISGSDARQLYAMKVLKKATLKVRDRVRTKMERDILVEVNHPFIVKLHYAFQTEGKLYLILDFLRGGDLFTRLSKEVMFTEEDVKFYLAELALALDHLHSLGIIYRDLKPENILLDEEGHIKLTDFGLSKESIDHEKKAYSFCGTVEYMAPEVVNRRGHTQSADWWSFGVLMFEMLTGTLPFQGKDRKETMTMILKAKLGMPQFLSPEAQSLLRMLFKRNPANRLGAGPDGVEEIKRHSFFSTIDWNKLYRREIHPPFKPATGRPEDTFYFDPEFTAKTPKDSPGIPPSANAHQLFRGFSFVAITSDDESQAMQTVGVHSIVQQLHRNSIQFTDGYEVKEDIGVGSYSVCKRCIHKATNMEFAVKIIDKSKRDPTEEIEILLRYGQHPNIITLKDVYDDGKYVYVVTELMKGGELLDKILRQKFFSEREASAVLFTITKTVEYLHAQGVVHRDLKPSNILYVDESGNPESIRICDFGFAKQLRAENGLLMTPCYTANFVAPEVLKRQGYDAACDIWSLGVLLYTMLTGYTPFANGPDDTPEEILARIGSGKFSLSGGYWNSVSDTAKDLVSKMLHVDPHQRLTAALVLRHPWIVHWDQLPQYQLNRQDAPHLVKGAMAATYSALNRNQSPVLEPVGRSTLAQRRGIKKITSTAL

These are yes or no findings as the source states them, for the method shown. Binding seen in cells or lysates may run through a third protein. Here binding means that the protein was enriched with, or labelled near, the bait; the list need not be complete. Tags and fused reporters may be left off the sequences shown.

The assay concerns the target T1, iRhom2 wild type (HA-tagged) (human) (UniProt Q6PJF5).
T1 sequence: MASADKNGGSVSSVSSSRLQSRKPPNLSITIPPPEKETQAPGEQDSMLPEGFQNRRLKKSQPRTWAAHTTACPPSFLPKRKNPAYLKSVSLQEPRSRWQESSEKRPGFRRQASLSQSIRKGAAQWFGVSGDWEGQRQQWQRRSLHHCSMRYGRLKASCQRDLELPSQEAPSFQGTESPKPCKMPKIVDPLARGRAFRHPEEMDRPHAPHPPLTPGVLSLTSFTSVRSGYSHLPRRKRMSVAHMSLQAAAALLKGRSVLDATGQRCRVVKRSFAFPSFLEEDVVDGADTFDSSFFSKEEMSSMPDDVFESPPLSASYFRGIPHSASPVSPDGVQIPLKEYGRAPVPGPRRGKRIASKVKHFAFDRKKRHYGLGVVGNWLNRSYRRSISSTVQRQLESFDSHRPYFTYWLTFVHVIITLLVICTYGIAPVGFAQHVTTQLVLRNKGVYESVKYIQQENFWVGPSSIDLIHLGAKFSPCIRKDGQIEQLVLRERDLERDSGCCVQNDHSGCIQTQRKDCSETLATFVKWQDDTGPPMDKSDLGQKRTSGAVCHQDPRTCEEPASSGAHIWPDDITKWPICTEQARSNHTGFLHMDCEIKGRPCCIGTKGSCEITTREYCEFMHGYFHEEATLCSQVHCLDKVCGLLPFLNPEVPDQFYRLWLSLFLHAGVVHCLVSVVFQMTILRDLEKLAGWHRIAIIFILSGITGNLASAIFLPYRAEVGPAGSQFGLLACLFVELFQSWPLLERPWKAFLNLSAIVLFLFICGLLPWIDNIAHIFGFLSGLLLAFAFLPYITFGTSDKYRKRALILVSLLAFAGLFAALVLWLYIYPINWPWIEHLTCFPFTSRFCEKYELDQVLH
Put plainly: affinity purification with mass spectrometry; HA-tagged WT iRhom2 pulled down on anti-HA beads from cells expressing oncogenic KRAS G12V or GFP control; DDM RIPA lysis buffer (1% DDM, 150 mM NaCl, 50 mM Tris-HCl pH 7.5, 0.1% SDS, 0.5% deoxycholate); on-bead digest, LC-MS/MS, NSAF.

In the case of “ribosomal protein S6 kinase alpha-3 (RSK2), endogenous (from UniProt P51812 1-740) (enzyme)”, the binding entry is reported as “binds”.
